These are yes or no findings as the source states them, for the method shown. Binding seen in cells or lysates may run through a third protein. These calls come from enrichment with a bait or labelling near it, and not all partners need be listed. For part of these data: No binding means not detected with the bait.
Experiments:
Experiment in all cases: affinity purification with mass spectrometry
[1] = target: ARID1A (human (endogenous in HAP1, BIN67, SCCOHT1, COV434)) (UniProt O14497)
[2] = target: SMARCB1 (human (endogenous in HAP1, BIN67, SCCOHT1, COV434)) (UniProt Q12824)
[3] = target: SMARCE1 (human (endogenous in HAP1, BIN67, SCCOHT1, COV434)) (UniProt Q969G3)
[4] = target: ARID2 (human (endogenous in HAP1, BIN67, SCCOHT1, COV434)) (UniProt Q68CP9)
[5] = target: SMARCC1 (human (endogenous in HAP1, BIN67, SCCOHT1, COV434)) (UniProt Q92922)

Amino acid sequences for entries named in this document (tags omitted).
UniProt Q12824: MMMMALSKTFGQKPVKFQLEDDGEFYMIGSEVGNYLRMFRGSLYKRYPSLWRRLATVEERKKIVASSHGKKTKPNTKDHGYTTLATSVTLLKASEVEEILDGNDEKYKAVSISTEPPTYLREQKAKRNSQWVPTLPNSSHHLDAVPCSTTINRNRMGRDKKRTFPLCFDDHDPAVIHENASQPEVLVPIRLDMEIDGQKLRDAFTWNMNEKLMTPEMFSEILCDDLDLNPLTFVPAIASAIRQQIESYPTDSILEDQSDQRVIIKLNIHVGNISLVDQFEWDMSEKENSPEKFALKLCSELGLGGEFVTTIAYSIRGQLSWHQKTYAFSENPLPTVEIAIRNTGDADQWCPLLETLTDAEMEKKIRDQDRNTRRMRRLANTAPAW
UniProt Q969G3: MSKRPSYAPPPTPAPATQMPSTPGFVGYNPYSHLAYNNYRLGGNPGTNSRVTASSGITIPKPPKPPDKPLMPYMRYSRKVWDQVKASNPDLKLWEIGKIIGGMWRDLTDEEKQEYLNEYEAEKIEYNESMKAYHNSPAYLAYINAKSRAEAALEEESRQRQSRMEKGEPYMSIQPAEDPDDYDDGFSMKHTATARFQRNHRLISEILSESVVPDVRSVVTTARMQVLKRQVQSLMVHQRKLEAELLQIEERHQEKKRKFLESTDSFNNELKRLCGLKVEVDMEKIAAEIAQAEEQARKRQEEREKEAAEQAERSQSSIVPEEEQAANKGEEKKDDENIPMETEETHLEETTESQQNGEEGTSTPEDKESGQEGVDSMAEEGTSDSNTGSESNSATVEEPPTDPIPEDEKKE
UniProt Q68CP9: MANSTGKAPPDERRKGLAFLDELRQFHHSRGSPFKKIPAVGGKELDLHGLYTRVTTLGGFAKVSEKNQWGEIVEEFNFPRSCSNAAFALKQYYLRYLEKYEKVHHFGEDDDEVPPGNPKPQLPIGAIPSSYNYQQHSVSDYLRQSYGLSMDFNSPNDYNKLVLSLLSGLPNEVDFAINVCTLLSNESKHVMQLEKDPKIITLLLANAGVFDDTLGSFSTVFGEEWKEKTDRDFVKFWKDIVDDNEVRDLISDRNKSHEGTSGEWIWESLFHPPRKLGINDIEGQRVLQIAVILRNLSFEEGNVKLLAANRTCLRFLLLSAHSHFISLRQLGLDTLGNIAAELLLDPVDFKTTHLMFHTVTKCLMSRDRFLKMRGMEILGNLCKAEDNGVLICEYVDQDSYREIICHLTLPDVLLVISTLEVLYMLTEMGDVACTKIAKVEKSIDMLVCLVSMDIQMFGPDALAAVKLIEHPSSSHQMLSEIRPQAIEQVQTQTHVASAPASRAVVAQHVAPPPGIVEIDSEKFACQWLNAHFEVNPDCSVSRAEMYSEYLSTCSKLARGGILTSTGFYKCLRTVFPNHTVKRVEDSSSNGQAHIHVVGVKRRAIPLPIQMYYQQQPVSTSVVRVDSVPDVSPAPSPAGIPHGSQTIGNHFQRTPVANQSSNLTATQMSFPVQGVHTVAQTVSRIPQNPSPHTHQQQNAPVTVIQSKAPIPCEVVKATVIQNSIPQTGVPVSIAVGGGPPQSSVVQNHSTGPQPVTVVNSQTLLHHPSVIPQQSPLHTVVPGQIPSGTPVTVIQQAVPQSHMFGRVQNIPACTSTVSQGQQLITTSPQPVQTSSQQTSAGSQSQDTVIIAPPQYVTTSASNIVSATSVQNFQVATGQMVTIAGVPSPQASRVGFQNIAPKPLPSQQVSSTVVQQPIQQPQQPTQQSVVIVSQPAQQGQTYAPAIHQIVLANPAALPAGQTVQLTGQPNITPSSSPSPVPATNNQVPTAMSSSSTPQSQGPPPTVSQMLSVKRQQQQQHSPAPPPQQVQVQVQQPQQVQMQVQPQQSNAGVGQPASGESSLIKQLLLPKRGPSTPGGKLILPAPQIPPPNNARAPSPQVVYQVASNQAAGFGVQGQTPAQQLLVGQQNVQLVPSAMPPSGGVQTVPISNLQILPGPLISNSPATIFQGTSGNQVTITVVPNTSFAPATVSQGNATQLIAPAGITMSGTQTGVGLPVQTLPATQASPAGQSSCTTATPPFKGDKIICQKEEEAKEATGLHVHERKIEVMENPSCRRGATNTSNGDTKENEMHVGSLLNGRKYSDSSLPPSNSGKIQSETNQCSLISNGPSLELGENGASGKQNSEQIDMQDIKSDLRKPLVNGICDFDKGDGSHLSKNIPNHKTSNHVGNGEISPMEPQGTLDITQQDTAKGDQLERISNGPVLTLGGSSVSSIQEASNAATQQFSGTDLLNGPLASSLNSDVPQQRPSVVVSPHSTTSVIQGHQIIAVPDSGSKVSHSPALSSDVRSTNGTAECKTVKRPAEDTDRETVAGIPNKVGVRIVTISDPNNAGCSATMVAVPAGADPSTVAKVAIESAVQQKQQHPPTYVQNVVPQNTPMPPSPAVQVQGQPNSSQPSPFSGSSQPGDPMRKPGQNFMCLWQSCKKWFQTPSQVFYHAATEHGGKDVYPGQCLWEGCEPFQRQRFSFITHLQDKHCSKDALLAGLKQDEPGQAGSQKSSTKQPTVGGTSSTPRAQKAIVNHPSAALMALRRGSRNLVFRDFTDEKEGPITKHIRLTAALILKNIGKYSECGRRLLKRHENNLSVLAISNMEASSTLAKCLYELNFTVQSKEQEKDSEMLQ
UniProt Q92922: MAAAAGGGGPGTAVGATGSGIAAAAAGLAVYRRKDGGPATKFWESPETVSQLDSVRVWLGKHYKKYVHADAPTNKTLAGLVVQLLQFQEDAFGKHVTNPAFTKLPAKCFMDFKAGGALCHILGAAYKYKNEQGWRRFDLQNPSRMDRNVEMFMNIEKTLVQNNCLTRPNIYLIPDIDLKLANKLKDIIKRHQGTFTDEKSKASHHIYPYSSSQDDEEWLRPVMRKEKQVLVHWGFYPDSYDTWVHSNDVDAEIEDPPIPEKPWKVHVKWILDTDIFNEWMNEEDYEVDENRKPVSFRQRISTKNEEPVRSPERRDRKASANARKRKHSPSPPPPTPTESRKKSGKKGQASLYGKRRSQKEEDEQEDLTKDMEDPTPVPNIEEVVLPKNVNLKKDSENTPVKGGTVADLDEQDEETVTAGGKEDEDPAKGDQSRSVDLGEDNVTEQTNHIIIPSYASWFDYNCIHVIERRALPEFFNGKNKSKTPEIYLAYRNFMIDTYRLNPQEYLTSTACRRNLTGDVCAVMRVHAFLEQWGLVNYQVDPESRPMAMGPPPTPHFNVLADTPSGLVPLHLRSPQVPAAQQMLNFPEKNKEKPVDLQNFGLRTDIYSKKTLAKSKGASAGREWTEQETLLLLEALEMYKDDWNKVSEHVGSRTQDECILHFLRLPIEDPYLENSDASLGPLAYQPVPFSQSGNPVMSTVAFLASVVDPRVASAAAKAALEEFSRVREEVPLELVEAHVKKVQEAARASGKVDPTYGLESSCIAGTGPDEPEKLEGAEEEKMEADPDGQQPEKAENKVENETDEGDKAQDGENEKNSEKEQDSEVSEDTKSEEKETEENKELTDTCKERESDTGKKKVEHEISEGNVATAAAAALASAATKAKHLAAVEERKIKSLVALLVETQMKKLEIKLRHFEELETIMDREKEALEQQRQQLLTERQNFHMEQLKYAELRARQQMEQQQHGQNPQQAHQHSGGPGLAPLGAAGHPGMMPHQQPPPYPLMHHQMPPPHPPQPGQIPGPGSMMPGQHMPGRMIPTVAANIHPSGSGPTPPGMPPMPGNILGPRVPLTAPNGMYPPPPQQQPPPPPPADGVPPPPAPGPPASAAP
UniProt P51532: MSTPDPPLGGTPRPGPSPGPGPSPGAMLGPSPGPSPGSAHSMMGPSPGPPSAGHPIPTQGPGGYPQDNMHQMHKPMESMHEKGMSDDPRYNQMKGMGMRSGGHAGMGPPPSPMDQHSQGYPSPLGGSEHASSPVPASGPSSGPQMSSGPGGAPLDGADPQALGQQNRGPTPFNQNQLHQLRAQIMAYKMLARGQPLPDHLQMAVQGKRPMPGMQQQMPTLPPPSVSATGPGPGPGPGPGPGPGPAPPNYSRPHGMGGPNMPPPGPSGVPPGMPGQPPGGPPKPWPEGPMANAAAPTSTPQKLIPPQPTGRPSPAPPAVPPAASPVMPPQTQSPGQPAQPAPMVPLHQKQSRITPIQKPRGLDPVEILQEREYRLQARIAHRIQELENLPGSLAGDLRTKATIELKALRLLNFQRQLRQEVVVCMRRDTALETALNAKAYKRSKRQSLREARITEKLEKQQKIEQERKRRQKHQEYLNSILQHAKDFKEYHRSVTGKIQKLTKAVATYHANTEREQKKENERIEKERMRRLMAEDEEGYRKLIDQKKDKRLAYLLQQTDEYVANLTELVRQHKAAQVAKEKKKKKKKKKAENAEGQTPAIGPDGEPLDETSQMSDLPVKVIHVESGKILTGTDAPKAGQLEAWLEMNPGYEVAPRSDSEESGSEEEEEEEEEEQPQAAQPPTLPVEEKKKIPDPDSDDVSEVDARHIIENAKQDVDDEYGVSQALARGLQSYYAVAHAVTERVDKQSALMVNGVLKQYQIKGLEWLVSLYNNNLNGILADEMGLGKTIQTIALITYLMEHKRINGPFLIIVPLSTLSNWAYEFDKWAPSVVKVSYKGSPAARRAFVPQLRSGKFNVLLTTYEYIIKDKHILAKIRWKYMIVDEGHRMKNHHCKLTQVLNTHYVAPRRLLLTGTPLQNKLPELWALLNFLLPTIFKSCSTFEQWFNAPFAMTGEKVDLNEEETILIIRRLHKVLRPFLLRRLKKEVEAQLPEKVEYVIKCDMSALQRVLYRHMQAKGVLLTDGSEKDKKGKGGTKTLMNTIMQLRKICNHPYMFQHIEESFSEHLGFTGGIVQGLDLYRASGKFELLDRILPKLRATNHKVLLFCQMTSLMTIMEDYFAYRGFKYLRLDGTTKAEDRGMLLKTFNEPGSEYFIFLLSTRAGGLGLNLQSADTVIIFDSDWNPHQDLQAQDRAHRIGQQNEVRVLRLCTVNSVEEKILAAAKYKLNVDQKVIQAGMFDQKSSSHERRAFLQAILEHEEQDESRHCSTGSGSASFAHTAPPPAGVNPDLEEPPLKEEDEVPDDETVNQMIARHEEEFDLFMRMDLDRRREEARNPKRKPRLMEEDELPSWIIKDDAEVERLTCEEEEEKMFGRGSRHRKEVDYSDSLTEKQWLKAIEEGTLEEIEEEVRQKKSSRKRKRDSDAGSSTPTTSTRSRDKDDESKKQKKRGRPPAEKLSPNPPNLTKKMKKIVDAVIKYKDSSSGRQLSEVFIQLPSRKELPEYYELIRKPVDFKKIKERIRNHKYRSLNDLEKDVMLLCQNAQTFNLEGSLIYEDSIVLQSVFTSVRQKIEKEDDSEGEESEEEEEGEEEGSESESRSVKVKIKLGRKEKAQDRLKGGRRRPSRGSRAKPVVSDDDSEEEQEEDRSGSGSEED
UniProt Q9H8M2: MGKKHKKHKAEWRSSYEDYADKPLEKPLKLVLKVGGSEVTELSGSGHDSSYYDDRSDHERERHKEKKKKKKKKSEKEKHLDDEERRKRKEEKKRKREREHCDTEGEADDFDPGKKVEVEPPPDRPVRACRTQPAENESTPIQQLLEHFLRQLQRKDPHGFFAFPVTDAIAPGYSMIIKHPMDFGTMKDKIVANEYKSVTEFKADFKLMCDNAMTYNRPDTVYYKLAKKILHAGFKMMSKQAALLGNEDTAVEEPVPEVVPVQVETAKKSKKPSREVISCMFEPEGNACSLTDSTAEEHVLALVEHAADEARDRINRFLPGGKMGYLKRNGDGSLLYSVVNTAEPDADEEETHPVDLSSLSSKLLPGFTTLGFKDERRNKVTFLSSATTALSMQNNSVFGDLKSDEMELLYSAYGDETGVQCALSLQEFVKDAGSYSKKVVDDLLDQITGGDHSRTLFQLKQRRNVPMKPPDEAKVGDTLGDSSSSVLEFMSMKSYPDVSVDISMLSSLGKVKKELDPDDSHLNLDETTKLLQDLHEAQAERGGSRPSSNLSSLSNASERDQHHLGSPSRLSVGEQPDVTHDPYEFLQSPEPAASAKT

Substance | binding [1] | binding [2] | binding [3] | binding [4] | binding [5]
SMARCA4 (wild type, HAP1) (from UniProt P51532 1-1647) | binds | binds | binds |  | 
BICRA (from UniProt Q9NZM4 1-1560) | no binding | no binding | no binding | no binding | binds
BICRAL (from UniProt Q6AI39 1-1079) | no binding | no binding | no binding | no binding | binds
BRD9 (from UniProt Q9H8M2 1-597) | no binding | no binding | no binding | no binding | binds

Source: publication doi:10.1101/794776
